# Results published in PubChem BioAssay AID445 (National Center for Advancing Translational Sciences (NCATS), 2006).
# The list shows a part of the results. Shown are side measurements of this screen, not its main read-out; they come without a call. Compounds called inactive in the main read-out are mostly missing here. Words in brackets tell the shape of the fitted curve; partial curves, single points and poor fits give uncertain potencies.
# Experiment: IkB Signaling
# Conditions: ABC-DLBCL IkBa-CBG/CBR dual luciferase ratio (green luciferase fused to IkBa over red control in OCI-Ly3 lymphoma cells), 4 h
# Outline: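 Curves were fitted separately to fusion (green), unfused (red) and ratio luminescence, then classed by r2, magnitude and activity. Cells: OCI-Ly3, 4 h compound plus doxycycline at 37C; 10 uM MG-132 defined full response.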
# [1] = measured here: control luc red channel unless noted
smiles,measurement,setting,value
CC(=O)Nc1ccc(Nc2c(CCC(C)C)c(C)c(C#N)c3nc4ccccc4n23)cc1,AC50,[1],"31.6 µM [falling, partial curve]"
CCc1ccc2nc(NC(=O)CSCc3c(C)noc3C)sc2c1,AC50,[1],"25.1 µM [falling, partial curve]"
COC(=O)c1sccc1S(=O)(=O)N(CC(=O)Nc1ccc(C)c(F)c1)c1ccc(C)c(C)c1,AC50,[1],"5.01 µM [falling, partial curve]"
Cc1onc(-c2ccccc2Cl)c1C(=O)Nc1cccc(-c2nc3ncccn3c2C)c1,AC50,[1],"12.6 µM [falling, partial curve]"
COc1ccc(-c2cc(C(C)=O)c(C)n2CCC(=O)Nc2ccc(C)c(Cl)c2)cc1,AC50,[1],"39.8 µM [falling, single point]"
COc1ccc(NC(=O)CCn2c(-c3ccc(F)cc3)cc(C(C)=O)c2C)c(OC)c1,AC50,[1],"0.398 µM [rising, partial curve]"
CCCNc1ncnc2c1c(-c1ccccc1)cn2-c1ccc(OCC)cc1,AC50,[1],"31.6 µM [falling, partial curve]"
COC(=O)CSc1nnc(CNc2ccc(Cl)cc2)n1Cc1ccccc1,AC50,[1],"10 µM [falling, partial curve]"
CCCOc1ccc(C(=O)Nc2ccc(-c3cc4ccccc4oc3=O)c(C)c2)cc1,AC50,[1],"3.16 µM [falling, full curve]"
Cc1ccc(NC(=O)c2c(C)oc3ccc(O)c(CN(C)Cc4ccccc4)c23)c(C)c1,AC50,[1],"12.6 µM [falling, partial curve]"
CCc1ccc(Nc2nnc(-c3cc4cc(OC)ccc4oc3=O)s2)cc1,AC50,[1],"5.01 µM [rising, full curve]"
CCc1c(C)nc(SCc2nc(-c3ccccc3C)no2)[nH]c1=O,AC50,[1],"31.6 µM [falling, single point]"
Cc1ccc(NC(=O)C2CCCN2S(=O)(=O)c2ccc3c(c2)C(C)(C)C(=O)N3C)cc1 (stereo not drawn),AC50,[1],"25.1 µM [falling, single point]"
COc1ccc(-c2cc(OC)c3c(C)oc(C)c3c(=O)c2)cc1OC,AC50,[1],"39.8 µM [falling, single point]"
Cc1ccccc1-n1c(SCc2ccccn2)nc2n[nH]c(C)c2c1=N,AC50,[1],"15.8 µM [falling, partial curve]"
COc1ccc(-c2cc(C)no2)cc1S(=O)(=O)NC1CCC(C)CC1 (stereo not drawn),AC50,[1],"10 µM [falling, partial curve]"
CCOc1ccc(-n2ccnc2SCC(=O)Nc2ccc3c(c2)OCO3)cc1,AC50,[1],"25.1 µM [falling, single point]"
COc1ccc(S(=O)(=O)NCCc2sc3nc(-c4ccc(C)cc4)nn3c2C)cc1F,AC50,[1],"39.8 µM [falling, single point]"
CCOc1ccc(CNC(=O)c2cnc3sc(N(CC)CC)nn3c2=O)cc1,AC50,[1],"10 µM [falling, partial curve, poor fit]"
Cc1ccc(CNC(=O)CN2CCN(Cc3ccc(Cl)cc3)C2=O)cc1,AC50,[1],"12.6 µM [falling, partial curve]"
CC(=O)Nc1ccc(NC(=O)c2cc(-c3cccs3)on2)cc1,AC50,[1],"3.98 µM [rising, partial curve]"
O=C(CSC1=Nc2ccccc2N=C(c2ccc(F)cc2)C1)Nc1ccc(Cl)cc1,AC50,[1],"3.16 µM [falling, full curve, poor fit]"
CCc1cccc(C)c1NC(=O)c1ccc2c(c1)CCN2S(=O)(=O)CC,AC50,[1],"20 µM [falling, partial curve]"
O=C(COC(=O)c1ccccc1S(=O)(=O)N1CCCCC1)NCC(F)(F)F,AC50,[1],"25.1 µM [falling, single point]"
CC(C)NC(=O)C1CCN(C(=O)c2cc3sccc3n2Cc2ccc(F)cc2)CC1,AC50,[1],"7.94 µM [falling, full curve, poor fit]"
COc1ccc(N2CCN(C(=O)C(C)n3c(=O)cc(C(F)(F)F)c4c(C)nn(C)c43)CC2)cc1 (stereo not drawn),AC50,[1],"31.6 µM [falling, single point]"
CCn1c2ccccc2c2cc(NC(=O)CSc3nnc(C4CC4)n3Cc3ccco3)ccc21,AC50,[1],"15.8 µM [falling, partial curve]"
COc1ccc(CN(C(=O)CN2C(=O)COc3ccccc32)C2CCCC2)c(OC)c1,AC50,[1],"31.6 µM [falling, partial curve, poor fit]"
Cc1ccc(-n2c(=O)c3oc4ccccc4c3n(CC(=O)Nc3ccc(F)c(Cl)c3)c2=O)cc1C,AC50,[1],"15.8 µM [falling, partial curve]"
O=C(CS(=O)(=O)c1cccc2nsnc12)Nc1ccc(F)cc1F,AC50,[1],"2.51 µM [falling, partial curve]"
O=C(Nc1ccccc1F)C1CCN(S(=O)(=O)c2ccc3c(c2)CCCN3C(=O)C2CCC2)CC1,AC50,[1],"0.316 µM [falling, partial curve, poor fit]"
O=C(Nc1ccc(C(=O)OCc2cc(=O)n3nc(C4CC4)sc3n2)cc1)c1cccc(Cl)c1,AC50,[1],"39.8 µM [falling, partial curve, poor fit]"
CCc1ccccc1NC(=O)C(CC)Oc1ccccc1-c1nnc(-c2ccccc2)o1 (stereo not drawn),AC50,[1],"3.98 µM [falling, partial curve, poor fit]"
Cc1c(NC(=O)c2noc3c2CCc2ccccc2-3)c(=O)n(-c2ccccc2)n1C,AC50,[1],"12.6 µM [falling, partial curve]"
CCOc1ccc(CCNC(=O)c2cccc(-n3c(C)nc4cccnc43)c2C)cc1,AC50,[1],"15.8 µM [falling, partial curve]"
C=CCNc1nc(NCc2ccco2)nc(OCC)n1,AC50,[1],"3.16 µM [rising, single point] [measured here: IkB-luc green channel]"
CCOC(=O)C1CCCN(C(=O)c2cc3nc(-c4cccc(OC)c4)cc(C(F)(F)F)n3n2)C1 (stereo not drawn),AC50,[1],"2 µM [falling, full curve, poor fit]"
CCc1cccc(C)c1NC(=O)C1CCN(S(=O)(=O)c2cccc3nonc23)CC1,AC50,[1],"1 µM [rising, full curve, poor fit]"
CSc1ccccc1NC(=O)c1cc(-c2cccs2)on1,AC50,[1],"3.16 µM [falling, partial curve]"
O=C1CC(c2ccc(Cl)cc2)c2cc3c(cc2N1)OCCO3 (stereo not drawn),AC50,[1],"39.8 µM [falling, single point]"
CCCCCn1c(=O)[nH]c2cc(C(=O)N3CCN(c4cccc(OC)c4)CC3)ccc2c1=O,AC50,[1],"3.98 µM [falling, full curve]"
COc1ccc(-c2nc3c(c(SCC(=O)Nc4ccccc4OC)n2)Cc2cccc(C)c2O3)cc1,AC50,[1],"15.8 µM [falling, partial curve]"
CCCCC(=O)Nc1c(C(=O)N2CCN(c3ccccc3)CC2)oc2ccccc12,AC50,[1],"20 µM [falling, partial curve]"
CSc1nnc(-c2ccccc2)c(=O)[nH]1,AC50,[1],"31.6 µM [falling, single point]"
COc1ccc(Cc2nn3c(-c4ccccc4OC)nnc3s2)cc1,AC50,[1],"12.6 µM [falling, partial curve]"
Cc1ccc2nc(-c3ccc4c(c3)OCCO4)cc(C(=O)O)c2c1,AC50,[1],"15.8 µM [falling, partial curve]"
COc1cccc(C(=O)Nc2cccc(C(=O)OCc3cc(=O)n4c5c(sc4n3)CCCC5)c2)c1,AC50,[1],"3.98 µM [falling, partial curve]"
CCc1nn(CCCC(=O)NCc2cc(Br)ccc2OC)c(=O)c2cc3occc3n12,AC50,[1],"25.1 µM [falling, single point]"
Cc1ccc(Cn2c(SCC(C)C)nc3c2c(=O)n(C)c(=O)n3C)cc1,AC50,[1],"25.1 µM [falling, partial curve]"
Cc1ccc(-c2nnc(Nc3ccc(O)cc3)c3ccccc23)cc1S(=O)(=O)N1CCCCC1,AC50,[1],"1 µM [falling, full curve]"
CC(C)(C)C(=O)Nc1ccc2nc(SCC(=O)N3CCc4ccccc43)sc2c1,AC50,[1],"10 µM [falling, partial curve]"
O=C(CSc1nnnn1C1CCCCC1)Nc1nc2c(s1)CCCC2,AC50,[1],"25.1 µM [falling, single point]"
CS(=O)(=O)Cc1nc2ccccc2oc1=O,AC50,[1],"12.6 µM [falling, partial curve]"
Cc1ccc(CN2C(=O)N(c3ccccc3)C(=O)C2CC(=O)Nc2ccccc2)cc1 (stereo not drawn),AC50,[1],"39.8 µM [falling, single point]"
COc1ccc(CC(=O)Nc2nc3ccccc3s2)cc1S(=O)(=O)N1CCOCC1,AC50,[1],"15.8 µM [falling, partial curve]"
CCCOc1ccc(C(=O)CCN2CCCCC2)cc1,AC50,[1],"12.6 µM [falling, partial curve]"
CCn1c(C(=O)N2CCC(C(=O)N3CCN(c4ccccn4)CC3)CC2)cc2sccc21,AC50,[1],"15.8 µM [falling, partial curve]"
CCc1cccc(C)c1NC(=O)Cn1cc2c(n1)CCCCC2,AC50,[1],"15.8 µM [falling, partial curve]"
Cc1nn(Cc2ccccc2)c2c1C(c1ccco1)C(C#N)=C(N)O2 (stereo not drawn),AC50,measured here: IkB-luc green channel,"31.6 µM [rising, single point]"
same,AC50,measured here: control luc red channel,"25.1 µM [rising, single point]"
COC(=O)c1ccccc1NC(=O)c1cnc2sc(N3CCOCC3)nn2c1=O,AC50,[1],"15.8 µM [falling, partial curve]"
Cc1cccc(NC(=O)COc2nsnc2N2CCOCC2)c1,AC50,[1],"0.501 µM [falling, full curve, poor fit]"
CCN1C(=O)c2ccccc2S(=O)c2ccc(C(=O)N3CCN(c4ccccc4OC)CC3)cc21 (stereo not drawn),AC50,[1],"25.1 µM [falling, single point]"

# Shown as tab-separated lines: entries from further up.
smiles	measurement	setting	value
Cc1c(NC(=O)c2noc3c2CCc2ccccc2-3)c(=O)n(-c2ccccc2)n1C	AC50	[1]	12.6 µM [falling, partial curve]
CCOc1ccc(CCNC(=O)c2cccc(-n3c(C)nc4cccnc43)c2C)cc1	AC50	[1]	15.8 µM [falling, partial curve]
C=CCNc1nc(NCc2ccco2)nc(OCC)n1	AC50	[1]	3.16 µM [rising, single point] [measured here: IkB-luc green channel]
CCOC(=O)C1CCCN(C(=O)c2cc3nc(-c4cccc(OC)c4)cc(C(F)(F)F)n3n2)C1 (stereo not drawn)	AC50	[1]	2 µM [falling, full curve, poor fit]
CCc1cccc(C)c1NC(=O)C1CCN(S(=O)(=O)c2cccc3nonc23)CC1	AC50	[1]	1 µM [rising, full curve, poor fit]
CSc1ccccc1NC(=O)c1cc(-c2cccs2)on1	AC50	[1]	3.16 µM [falling, partial curve]
O=C1CC(c2ccc(Cl)cc2)c2cc3c(cc2N1)OCCO3 (stereo not drawn)	AC50	[1]	39.8 µM [falling, single point]
CCCCCn1c(=O)[nH]c2cc(C(=O)N3CCN(c4cccc(OC)c4)CC3)ccc2c1=O	AC50	[1]	3.98 µM [falling, full curve]
COc1ccc(-c2nc3c(c(SCC(=O)Nc4ccccc4OC)n2)Cc2cccc(C)c2O3)cc1	AC50	[1]	15.8 µM [falling, partial curve]
CCCCC(=O)Nc1c(C(=O)N2CCN(c3ccccc3)CC2)oc2ccccc12	AC50	[1]	20 µM [falling, partial curve]
CSc1nnc(-c2ccccc2)c(=O)[nH]1	AC50	[1]	31.6 µM [falling, single point]
COc1ccc(Cc2nn3c(-c4ccccc4OC)nnc3s2)cc1	AC50	[1]	12.6 µM [falling, partial curve]
Cc1ccc2nc(-c3ccc4c(c3)OCCO4)cc(C(=O)O)c2c1	AC50	[1]	15.8 µM [falling, partial curve]
COc1cccc(C(=O)Nc2cccc(C(=O)OCc3cc(=O)n4c5c(sc4n3)CCCC5)c2)c1	AC50	[1]	3.98 µM [falling, partial curve]
CCc1nn(CCCC(=O)NCc2cc(Br)ccc2OC)c(=O)c2cc3occc3n12	AC50	[1]	25.1 µM [falling, single point]
Cc1ccc(Cn2c(SCC(C)C)nc3c2c(=O)n(C)c(=O)n3C)cc1	AC50	[1]	25.1 µM [falling, partial curve]
